From publication PMC9365803, “Identification of a HTT-specific binding motif in DNAJB1 essential for suppression and disaggregation of HTT” (Nature Communications, 2022)
No constants are given. Whether binding was seen depends on the method and setting.

Chains of the proteins cited; added tags and fusions are not shown. Lines headed by an entry give the natural chain unless they say otherwise; changes in a name come on top. Residues count along the entry.
UniProt P25685, residues 1-323: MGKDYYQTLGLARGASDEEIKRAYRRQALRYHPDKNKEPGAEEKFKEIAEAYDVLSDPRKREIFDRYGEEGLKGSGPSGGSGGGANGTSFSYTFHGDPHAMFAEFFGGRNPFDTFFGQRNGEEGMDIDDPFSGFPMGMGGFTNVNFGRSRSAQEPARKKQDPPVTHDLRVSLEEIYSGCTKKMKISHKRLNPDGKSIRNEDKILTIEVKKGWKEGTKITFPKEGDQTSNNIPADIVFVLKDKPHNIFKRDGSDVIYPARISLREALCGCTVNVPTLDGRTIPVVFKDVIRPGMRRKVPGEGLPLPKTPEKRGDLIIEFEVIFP
UniProt P34932: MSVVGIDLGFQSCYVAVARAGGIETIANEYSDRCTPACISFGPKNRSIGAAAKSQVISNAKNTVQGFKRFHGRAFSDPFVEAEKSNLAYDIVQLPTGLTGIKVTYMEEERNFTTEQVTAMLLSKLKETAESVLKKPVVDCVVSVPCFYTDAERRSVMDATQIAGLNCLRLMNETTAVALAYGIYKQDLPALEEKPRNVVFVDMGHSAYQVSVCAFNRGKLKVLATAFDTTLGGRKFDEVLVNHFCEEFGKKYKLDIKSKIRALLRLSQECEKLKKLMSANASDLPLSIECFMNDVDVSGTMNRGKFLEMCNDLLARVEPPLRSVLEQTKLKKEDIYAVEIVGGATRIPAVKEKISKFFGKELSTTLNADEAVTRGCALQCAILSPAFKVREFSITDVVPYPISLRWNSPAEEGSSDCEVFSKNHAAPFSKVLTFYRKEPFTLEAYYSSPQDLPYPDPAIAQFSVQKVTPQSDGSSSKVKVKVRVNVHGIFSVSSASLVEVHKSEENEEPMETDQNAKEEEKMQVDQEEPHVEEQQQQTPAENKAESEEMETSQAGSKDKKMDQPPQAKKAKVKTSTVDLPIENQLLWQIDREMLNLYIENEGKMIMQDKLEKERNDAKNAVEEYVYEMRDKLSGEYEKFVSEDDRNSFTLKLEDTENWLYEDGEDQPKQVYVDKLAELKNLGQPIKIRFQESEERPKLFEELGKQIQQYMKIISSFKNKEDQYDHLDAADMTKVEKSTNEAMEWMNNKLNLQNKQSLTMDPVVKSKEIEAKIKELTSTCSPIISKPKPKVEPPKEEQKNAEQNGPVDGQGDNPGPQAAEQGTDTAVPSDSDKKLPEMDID

Key:
HTTExon1Q48 = assay: cross-linking; XL-MS: HTTExon1Q23/48 incubated with Hsc70, DNAJB1 and Apg2 in the presence of ATP; 5–10 μM total protein, 0.5–1 mM SDA, 30 min at room temperature, UV photoactivation, SDS-PAGE, in-gel digestion with elastase, LC/MS; both purified
DNAJB1^ΔDD (human) = DNAJB1^ΔDD (human) (UniProt P25685); assay: SEC; Superdex 75 10/300 GL and Superose 6; 30 mM HEPES-KOH pH 7.4, 50 mM KCl, 1 mM β-mercaptoethanol; 0.5 ml/min; Conalbumin and Ovalbumin as standards; both purified

Substance	binding (HTTExon1Q48)	binding (DNAJB1^ΔDD (human))
Apg2 (from UniProt P34932 1-840)	no binding (tested: 5–10 μM total protein)	–
DNAJB1^ΔDD (from UniProt P25685 1-323) (domain or fragment)	–	no binding
